Test results from PubChem BioAssay AID686979 (National Center for Advancing Translational Sciences (NCATS), 2013).
In all, about 420,000 compounds went through this assay and about 50,000 (12%) were called active. These results got no clear call from the source, so the numbers are uncertain. The call rests on the fitted dose curve; in most records, active means well fitted inhibition curve with a large enough effect; inconclusive means small, poorly fitted or top-dose-only effect; inactive means flat fitted curve, though single readings scatter.

test: qHTS for Inhibitors of human tyrosyl-DNA phosphodiesterase 1 (TDP1): qHTS in cells in presence of CPT; conditions: chicken DT40 Tdp1-/-;hTDP1 cells + 20 nM CPT, ATP luminescence, 48 h; further: nearly all actives have a fitted effect of over 55% in size
Potency means the concentration at half of the fitted maximal effect.

SMILES | Potency
CP(=O)(OC12CC3CC(CC(C3)C1)C2)OC12CC3CC(CC(C3)C1)C2 | inconclusive: 35.5 µM
CCCCCOc1ccc(NP(C)(=O)Oc2ccc(Cl)cc2Cl)cc1 (stereo not given) | inconclusive: 29.1 µM
CC(C)c1ccc(OP(C)(=O)Nc2ccc(SC(F)(F)F)cc2)cc1 (stereo not given) | inconclusive: 25.9 µM
CP(=O)(Nc1ccc(SC(F)(F)F)cc1)Oc1ccc(F)cc1 (stereo not given) | inconclusive: 29.1 µM
Cc1cc(-c2cccc3ccccc23)c(C)cn1.O=[N+]([O-])c1cc([N+](=O)[O-])c(O)c([N+](=O)[O-])c1 | inconclusive: 29.1 µM
O=[N+]([O-])c1cc([N+](=O)[O-])c(Nc2nnnn2CCO)c([N+](=O)[O-])c1 | inconclusive: 29.1 µM
CP(=O)(Nc1ccc(SC(F)(F)F)cc1)Oc1ccccc1 (stereo not given) | inconclusive: 18.4 µM
CN(Cc1cccnc1)C(=O)COc1ccc(Cl)c(Cl)c1.O=[N+]([O-])c1cc([N+](=O)[O-])c(O)c([N+](=O)[O-])c1 | inconclusive: 18.4 µM
CCOC(=O)c1ccc(NP(C)(=O)Oc2cc(C)cc(C)c2)cc1 (stereo not given) | inconclusive: 25.9 µM
O=[N+]([O-])c1cccc([N+](=O)[O-])c1 | inconclusive: 34.4 µM
CC(C)(C)c1ccc(OP(C)(=O)Nc2ccc(SC(F)(F)F)cc2)cc1 (stereo not given) | inconclusive: 29.1 µM
COc1ccccc1OP(C)(=O)Nc1cc(Cl)ccc1C (stereo not given) | inconclusive: 23.1 µM
CP(=O)(Nc1ccc(SC(F)(F)F)cc1)Oc1ccc(Cl)cc1 (stereo not given) | inconclusive: 25.9 µM
Cc1cccc(C)c1OP(C)(=O)Nc1ccc(SC(F)(F)F)cc1 (stereo not given) | inconclusive: 16.4 µM
Cc1cc(C)cc(OP(C)(=O)Nc2ccc(SC(F)(F)F)cc2)c1 (stereo not given) | inconclusive: 16.4 µM
